The results in this text go back to paper doi:10.1101/2022.06.06.494580.

By UniProt entry, the sequences of proteins in these tests, tags left out.
UniProt Q9UIV1: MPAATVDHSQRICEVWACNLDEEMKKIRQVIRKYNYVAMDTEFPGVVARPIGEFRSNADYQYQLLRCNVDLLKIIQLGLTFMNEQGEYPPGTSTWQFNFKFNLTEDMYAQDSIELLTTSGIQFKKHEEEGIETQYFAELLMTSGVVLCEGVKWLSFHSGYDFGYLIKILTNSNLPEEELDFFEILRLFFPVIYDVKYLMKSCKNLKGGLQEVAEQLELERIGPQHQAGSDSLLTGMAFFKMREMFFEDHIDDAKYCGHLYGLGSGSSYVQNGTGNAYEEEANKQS
UniProt Q9C0C2: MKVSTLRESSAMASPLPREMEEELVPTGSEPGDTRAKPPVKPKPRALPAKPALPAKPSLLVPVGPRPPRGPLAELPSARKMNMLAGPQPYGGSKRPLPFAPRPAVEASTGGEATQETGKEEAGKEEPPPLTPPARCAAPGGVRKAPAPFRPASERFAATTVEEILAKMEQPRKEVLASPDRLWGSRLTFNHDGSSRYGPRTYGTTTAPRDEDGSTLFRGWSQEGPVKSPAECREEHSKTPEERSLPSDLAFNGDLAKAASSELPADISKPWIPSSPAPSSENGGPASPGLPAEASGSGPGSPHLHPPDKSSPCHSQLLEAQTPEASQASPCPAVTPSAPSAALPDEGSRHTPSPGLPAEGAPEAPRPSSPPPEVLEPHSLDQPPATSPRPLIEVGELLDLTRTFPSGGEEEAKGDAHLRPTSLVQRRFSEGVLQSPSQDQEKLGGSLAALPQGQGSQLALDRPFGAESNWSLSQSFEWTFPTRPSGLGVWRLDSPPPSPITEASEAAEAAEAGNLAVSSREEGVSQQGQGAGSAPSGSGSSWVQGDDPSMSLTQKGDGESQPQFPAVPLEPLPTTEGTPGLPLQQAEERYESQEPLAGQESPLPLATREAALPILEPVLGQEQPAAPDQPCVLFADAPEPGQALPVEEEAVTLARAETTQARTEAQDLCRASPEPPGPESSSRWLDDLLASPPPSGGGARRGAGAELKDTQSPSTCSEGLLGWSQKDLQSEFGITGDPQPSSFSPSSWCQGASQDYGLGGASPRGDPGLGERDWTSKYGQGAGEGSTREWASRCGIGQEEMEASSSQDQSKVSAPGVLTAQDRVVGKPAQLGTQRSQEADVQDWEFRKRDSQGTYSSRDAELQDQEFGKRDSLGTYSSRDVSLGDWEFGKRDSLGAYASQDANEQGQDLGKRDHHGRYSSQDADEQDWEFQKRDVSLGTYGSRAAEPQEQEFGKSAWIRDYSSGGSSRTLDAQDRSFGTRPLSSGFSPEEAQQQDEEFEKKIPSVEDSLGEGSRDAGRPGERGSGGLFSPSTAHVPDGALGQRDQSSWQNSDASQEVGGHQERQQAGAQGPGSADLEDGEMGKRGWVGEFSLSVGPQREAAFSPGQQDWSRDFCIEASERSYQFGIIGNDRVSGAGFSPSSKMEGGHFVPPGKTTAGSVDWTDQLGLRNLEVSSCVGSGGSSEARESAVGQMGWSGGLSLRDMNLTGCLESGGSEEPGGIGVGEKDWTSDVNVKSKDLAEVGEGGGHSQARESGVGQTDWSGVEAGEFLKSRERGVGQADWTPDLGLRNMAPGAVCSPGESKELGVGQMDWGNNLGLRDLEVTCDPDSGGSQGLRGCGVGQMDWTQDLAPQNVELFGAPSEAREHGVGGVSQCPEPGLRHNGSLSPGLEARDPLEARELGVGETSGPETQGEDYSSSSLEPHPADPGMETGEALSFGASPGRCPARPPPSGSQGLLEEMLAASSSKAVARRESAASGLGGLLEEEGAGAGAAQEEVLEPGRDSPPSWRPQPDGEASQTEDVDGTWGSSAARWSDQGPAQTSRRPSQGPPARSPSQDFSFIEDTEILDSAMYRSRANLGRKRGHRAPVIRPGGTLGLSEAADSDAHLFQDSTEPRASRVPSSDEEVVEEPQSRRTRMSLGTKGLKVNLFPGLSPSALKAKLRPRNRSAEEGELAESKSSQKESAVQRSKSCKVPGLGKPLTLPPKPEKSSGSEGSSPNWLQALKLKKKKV
UniProt Q9ULM6: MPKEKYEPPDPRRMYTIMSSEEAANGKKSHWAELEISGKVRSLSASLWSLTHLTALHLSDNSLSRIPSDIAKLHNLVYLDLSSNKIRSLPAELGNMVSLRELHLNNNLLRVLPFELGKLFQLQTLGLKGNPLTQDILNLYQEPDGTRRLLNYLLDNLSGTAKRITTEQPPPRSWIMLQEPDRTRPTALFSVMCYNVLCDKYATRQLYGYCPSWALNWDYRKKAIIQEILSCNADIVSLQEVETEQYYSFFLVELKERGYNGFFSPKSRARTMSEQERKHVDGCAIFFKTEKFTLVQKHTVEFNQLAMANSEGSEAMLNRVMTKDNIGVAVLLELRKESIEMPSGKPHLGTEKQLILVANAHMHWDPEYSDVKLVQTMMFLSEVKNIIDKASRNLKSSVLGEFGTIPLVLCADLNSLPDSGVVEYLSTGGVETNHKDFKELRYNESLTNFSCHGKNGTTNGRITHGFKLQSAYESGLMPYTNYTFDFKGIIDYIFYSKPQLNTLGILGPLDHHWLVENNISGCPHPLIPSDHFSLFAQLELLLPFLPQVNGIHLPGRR

This experiment has as its target 3′ 3X-FLAG-tagged CNOT7 (human) (UniProt Q9UIV1). Description: affinity purification with mass spectrometry.

Results are given in words; binding and its absence hold for the method and conditions named. In cells and extracts the contact can be indirect. A yes stands for co-enrichment or nearness to the bait. Other partners may have been found.

Regarding “TNKS1BP1 (endogenous, Flp-In T-REx 293 lysate) (from UniProt Q9C0C2 1-1729)”, the binding result is recorded as “binds”. In the case of “CNOT6 (endogenous, Flp-In T-REx 293 lysate) (from UniProt Q9ULM6 1-557)” it was “binds”.
